The list shows only some results of the screen, not a fair sample: it gathers tests that were run many times, whatever their T/C, doses with no T/C, and many T/C values between a quarter and a half above the control. Further doses and runs are listed elsewhere. T/C is the treated group as % of the vehicle group. Some doses have a count of surviving animals in place of a T/C: the source files T/C as zero there, which appears to mark a toxic dose or a test without result, not a measured value. Some survivor counts are full or nearly so, which does not show that the dose was tolerated: survival well below the control is almost never listed, so the zero probably covers shortened survival too. Survivors were counted at the toxicity check, usually on the fifth day, unless a day is given; later deaths do not show. Schedule codes are those of the source, read here as Q, the interval in days (D) or hours (H), X, the number of doses. Some molecules as drawn cover several salts, stereoisomers or complexes of the source; a dose is that of the sample tested. Some entries were tested several times; their values stand side by side, smallest first. Where survival is the endpoint, this PubChem deposit counts one and a half times the control or more as active, and values a quarter to a half above the control carry no call in these data; other NCI protocols may use other cut-offs. Brackets with × count equal records among those shown. Some T/C values carry the count of animals alive at the toxicity check (mostly the fifth day); without a count, all were alive then.
Test system: P388 leukemia ip, CD2F1 mice, survival T/C
Experiment: NCI In Vivo Anticancer Drug Screen. Data for tumor model P388 Leukemia (intraperitoneal) in CD2F1 (CDF1) mice
Settings: T/C endpoint: median survival time, higher T/C = longer survival
[1] = dose: 100.0 mg/kg/injection, schedule: Q01DX009 (ip), vehicle: distilled water + Tween-80
[2] = dose: 100.0 mg/kg/injection, schedule: Q01DX009 (ip), vehicle: saline with Tween-80
[3] = dose: 200.0 mg/kg/injection, schedule: Q01DX009 (ip), vehicle: distilled water + Tween-80
[4] = dose: 100.0 mg/kg/injection, schedule: Q01DX005 (ip), vehicle: saline with Tween-80
[5] = dose: 200.0 mg/kg/injection, schedule: Q01DX005 (ip), vehicle: saline with Tween-80
[6] = dose: 50.0 mg/kg/injection, schedule: Q01DX009 (ip), vehicle: saline
[7] = dose: 100.0 mg/kg/injection, schedule: Q01DX009 (ip), vehicle: saline
[8] = dose: 200.0 mg/kg/injection, schedule: Q01DX009 (ip), vehicle: saline
[9] = dose: 50.0 mg/kg/injection, schedule: Q01DX009 (ip), vehicle: Klucel (hydroxypropylcellulose) (HPC)
[10] = dose: 100.0 mg/kg/injection, schedule: Q01DX009 (ip), vehicle: Klucel (hydroxypropylcellulose) (HPC)
[11] = dose: 200.0 mg/kg/injection, schedule: Q01DX009 (ip), vehicle: Klucel (hydroxypropylcellulose) (HPC)
[12] = dose: 120.0 mg/kg/injection, schedule: Q01DX005 (ip), vehicle: saline with Tween-80
[13] = dose: 240.0 mg/kg/injection, schedule: Q01DX005 (ip), vehicle: saline with Tween-80
[14] = dose: 12.5 mg/kg/injection, schedule: Q01DX009 (ip), vehicle: water

OC(COc1cccc(C(F)(F)F)c1)CN1CCN(c2ccc(F)cc2)CC1 (centres undefined)
survivor count [1]: 2 of 6 | T/C [2]: 135 % of control [4 of 6 alive] | survivor count [3]: 0 of 6

CC(C)=CC(=O)Sc1ccccc1
survivor count [4]: 0 of 6 | survivor count [5]: 0 of 6

CCOC(=O)NSCC
survivor count [6]: 4 of 6 | survivor count [7]: 2 of 6 | survivor count [8]: 0 of 6

Cn1c(=O)c2nc(-c3ccc(Cl)c(Cl)c3)c(-c3ccc(Cl)c(Cl)c3)nc2n(C)c1=O
survivor count (dose: 100.0 mg/kg/injection, schedule: Q01DX001 (ip), vehicle: saline with Tween-80): 6 of 6

O=[C-]C(F)(F)F.[C-]#[O+].[C-]#[O+].[C-]#[O+].[C-]#[O+].[C-]#[O+].[Mn]
survivor count (dose: 200.0 mg/kg/injection, schedule: Q01DX001 (ip), vehicle: other): 1 of 6

C[N+](C)(C)CC[N+](C)(C)Cc1cccc2ccccc12
survivor count [8]: 1 of 6

CC(=O)NC1=C(N2CC2)C(=O)C(NC(C)=O)=C(N2CC2)C1=O
T/C (dose: 250.0 micrograms/kg/injection, schedule: Q01DX010 (ip), vehicle: saline): 145 % of control

CC(C)CC(C)(c1ccc(O)cc1)c1ccc(O)cc1
survivor count (dose: 400.0 mg/kg/injection, schedule: Q01DX009 (ip), vehicle: saline with Tween-80): 2 of 6

CC1(C)CNC(=S)O1
survivor count [9]: 0 of 6 | survivor count [10]: 0 of 6 | survivor count [11]: 0 of 6 | survivor count (dose: 400.0 mg/kg/injection, schedule: Q01DX009 (ip), vehicle: Klucel (hydroxypropylcellulose) (HPC)): 0 of 6

Cc1ccc(/C=C2/C(=O)N(c3ccccc3)N=C2c2ccccc2)cc1
survivor count (dose: 7.5 mg/kg/injection, schedule: Q01DX005 (ip), vehicle: saline): 5 of 6 | survivor count (dose: 60.0 mg/kg/injection, schedule: Q01DX005 (ip), vehicle: saline with Tween-80): 0 of 6 | survivor count [12]: 2 of 6 | survivor count [13]: 0 of 6

O=c1ccn(C2CCCCC2)c(=O)[nH]1
survivor count (dose: 50.0 mg/kg/injection, schedule: Q01DX005 (ip), vehicle: Klucel (hydroxypropylcellulose) (HPC)): 0 of 6 | survivor count (dose: 100.0 mg/kg/injection, schedule: Q01DX005 (ip), vehicle: Klucel (hydroxypropylcellulose) (HPC)): 0 of 6 | survivor count (dose: 200.0 mg/kg/injection, schedule: Q01DX005 (ip), vehicle: Klucel (hydroxypropylcellulose) (HPC)): 0 of 6

Cc1sc(NCc2ccccc2)c(C#N)c1C
survivor count [9]: 4 of 6 | survivor count [11]: 6 of 6

Cc1cc2ncn(CC(=O)O)c2cc1C
survivor count (dose: 200.0 mg/kg/injection, schedule: Q04DX003 (ip), vehicle: saline with Tween-80): 3 of 6

CCCC(C)N(CCCNc1cc(OC)cc2cccnc12)CC(C)C (centres undefined)
survivor count [4]: 0 of 5 | survivor count [5]: 0 of 5

Cc1cccc(NCc2ccccn2)n1
survivor count [5]: 1 of 6

OC1(c2ccccc2)C(c2ccccc2)=C(c2ccccc2)C(c2ccc(CCc3ccc(C4=C(c5ccccc5)C(O)(c5ccccc5)C(c5ccccc5)=C4c4ccccc4)cc3)cc2)=C1c1ccccc1 (centres undefined)
survivor count (dose: 100.0 mg/kg/injection, schedule: Q01DX001 (ip), vehicle: Klucel (hydroxypropylcellulose) (HPC)): 6 of 6 | survivor count (dose: 200.0 mg/kg/injection, schedule: Q01DX001 (ip), vehicle: Klucel (hydroxypropylcellulose) (HPC)): 6 of 6

CC1CC2OC(=O)C3=C2C(CCC3)C12CC(c1ccoc1)OC2=O (centres undefined)
survivor count (dose: 50.0 mg/kg/injection, schedule: Q01DX009 (ip), vehicle: saline with Tween-80): 3 of 3 | survivor count [2]: 0 of 3

O=C(Cc1cccc(CC(=O)c2ccccc2)n1)c1ccccc1
survivor count [12]: 6 of 6 | survivor count [13]: 6 of 6

OCCN1CCN(CC/C=C2/c3ccccc3Sc3ccc(Cl)cc32)CC1
survivor count (dose: 12.5 mg/kg/injection, schedule: Q01DX005 (ip), vehicle: saline): 1 of 6 | T/C (dose: 22.0 mg/kg/injection, schedule: Q04DX003 (ip), vehicle: saline): 145 % of control | survivor count (dose: 25.0 mg/kg/injection, schedule: Q01DX005 (ip), vehicle: saline): 6 of 6 | survivor count (dose: 50.0 mg/kg/injection, schedule: Q01DX005 (ip), vehicle: saline): 0 of 6 | T/C (dose: 50.0 mg/kg/injection, schedule: Q04DX003 (ip), vehicle: saline): 127 % of control | survivor count (dose: 100.0 mg/kg/injection, schedule: Q01DX005 (ip), vehicle: saline): 0 of 6 | survivor count (dose: 200.0 mg/kg/injection, schedule: Q01DX005 (ip), vehicle: saline): 0 of 6

N#CSc1ccc2nc(NC(NC=O)C(Cl)(Cl)Cl)sc2c1 (centres undefined)
survivor count [9]: 6 of 6 | survivor count [10]: 6 of 6 | survivor count [11]: 0 of 6

N#C/C(=C1/OC(=N)C(c2ccc(Cl)cc2)C1=O)c1ccc(Cl)cc1 (centres undefined)
survivor count [5]: 2 of 6

ClCc1ccc(Oc2ccc(CCl)cc2)cc1
T/C (dose: 25.0 mg/kg/injection, schedule: Q01DX009 (ip), vehicle: Klucel (hydroxypropylcellulose) (HPC)): 127 % of control | T/C [9]: 131 % of control (2×) | survivor count [10]: 6 of 6 | survivor count [11]: 2 of 6

COc1nc2cc3c(cc2n2cccc12)oc1ccccc13
survivor count [5]: 3 of 6

CN=C(NC1CCCCC1)c1ccc(NC(=O)c2ccc(C(=O)Nc3ccc(C(=NC)NC4CCCCC4)cc3)cc2)cc1
survivor count (dose: 12.5 mg/kg/injection, schedule: Q01DX005 (ip), vehicle: saline with Tween-80): 0 of 6 | survivor count (dose: 25.0 mg/kg/injection, schedule: Q01DX005 (ip), vehicle: saline with Tween-80): 0 of 6 | survivor count (dose: 50.0 mg/kg/injection, schedule: Q01DX005 (ip), vehicle: saline with Tween-80): 0 of 6 | survivor count [4]: 0 of 6 | survivor count [5]: 0 of 6

S=C(N/N=C/c1ccccn1)N/N=C/c1ccccn1
T/C (dose: 6.25 mg/kg/injection, schedule: Q01DX009 (ip), vehicle: distilled water + Tween-80): 131 % of control [5 of 6 alive] | T/C (dose: 12.5 mg/kg/injection, schedule: Q01DX009 (ip), vehicle: distilled water + Tween-80): 149 % of control | T/C (dose: 25.0 mg/kg/injection, schedule: Q01DX009 (ip), vehicle: distilled water + Tween-80): 146 % of control | survivor count (dose: 50.0 mg/kg/injection, schedule: Q01DX009 (ip), vehicle: distilled water + Tween-80): 1 of 6 and 5 of 6 | T/C [6]: 128 and 138 % of control | survivor count [1]: 0 of 6 and 1 of 6 | survivor count [7]: 4 of 6 | survivor count [3]: 0 of 6 | survivor count (dose: 400.0 mg/kg/injection, schedule: Q01DX009 (ip), vehicle: distilled water + Tween-80): 0 of 6

COc1cccc2c(Nc3ccc4c(c3)OCO4)c(C(=O)O)cnc12
survivor count (dose: 240.0 mg/kg/injection, schedule: Q01DX005 (ip), vehicle: Klucel + Tween-80): 2 of 6

CC(=O)c1cc[n+](Cc2cc3ccccc3nc2Br)cc1
survivor count (dose: 100.0 mg/kg/injection, schedule: Q04DX002 (ip), vehicle: saline): 0 of 6 | survivor count (dose: 200.0 mg/kg/injection, schedule: Q04DX002 (ip), vehicle: saline): 0 of 6 | survivor count (dose: 400.0 mg/kg/injection, schedule: Q04DX002 (ip), vehicle: saline): 0 of 6

C[n+]1c(-c2cccc(OCCCCCCCCCCCCCCCCOc3cccc(-c4c5cc(N)ccc5c5ccc(N)cc5[n+]4C)c3)c2)c2cc(N)ccc2c2ccc(N)cc21
T/C (dose: 3.12 mg/kg/injection, schedule: Q01DX009 (ip), vehicle: water): 143 % of control | T/C (dose: 6.25 mg/kg/injection, schedule: Q01DX009 (ip), vehicle: water): 125 % of control | T/C [14]: 145 % of control | survivor count [14]: 6 of 6

— PubChem BioAssay AID330 (DTP/NCI, 2004)
